The results in this text go back to the supplement of paper PMC12819154, “High-throughput peptide-centric local stability assay extends protein–ligand identification to membrane proteins, tissues and bacteria” (Nature Structural & Molecular Biology, 2025).

Chains of the proteins cited; added tags and fusions are not shown. Lines headed by an entry give the natural chain unless they say otherwise; changes in a name come on top.
UniProt Q9P2I0: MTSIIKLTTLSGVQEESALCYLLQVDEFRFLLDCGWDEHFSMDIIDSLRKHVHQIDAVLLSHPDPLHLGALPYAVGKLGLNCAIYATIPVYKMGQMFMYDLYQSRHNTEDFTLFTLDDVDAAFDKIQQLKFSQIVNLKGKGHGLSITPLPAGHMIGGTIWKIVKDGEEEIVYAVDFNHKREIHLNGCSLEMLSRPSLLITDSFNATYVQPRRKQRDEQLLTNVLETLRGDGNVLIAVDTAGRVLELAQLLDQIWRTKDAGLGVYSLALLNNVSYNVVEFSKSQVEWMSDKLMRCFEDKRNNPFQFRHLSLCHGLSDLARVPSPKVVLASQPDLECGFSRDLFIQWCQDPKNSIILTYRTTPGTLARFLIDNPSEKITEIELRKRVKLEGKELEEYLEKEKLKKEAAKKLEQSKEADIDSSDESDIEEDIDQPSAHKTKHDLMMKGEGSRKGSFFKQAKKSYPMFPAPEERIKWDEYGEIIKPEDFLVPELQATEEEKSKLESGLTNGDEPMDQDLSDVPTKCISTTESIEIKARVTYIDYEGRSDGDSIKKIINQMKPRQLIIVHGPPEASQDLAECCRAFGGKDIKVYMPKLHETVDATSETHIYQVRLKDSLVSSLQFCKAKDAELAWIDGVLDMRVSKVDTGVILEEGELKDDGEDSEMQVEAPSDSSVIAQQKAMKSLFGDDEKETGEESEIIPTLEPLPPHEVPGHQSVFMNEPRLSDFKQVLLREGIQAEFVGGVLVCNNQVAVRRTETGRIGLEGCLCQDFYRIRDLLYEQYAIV
UniProt Q9NXC5: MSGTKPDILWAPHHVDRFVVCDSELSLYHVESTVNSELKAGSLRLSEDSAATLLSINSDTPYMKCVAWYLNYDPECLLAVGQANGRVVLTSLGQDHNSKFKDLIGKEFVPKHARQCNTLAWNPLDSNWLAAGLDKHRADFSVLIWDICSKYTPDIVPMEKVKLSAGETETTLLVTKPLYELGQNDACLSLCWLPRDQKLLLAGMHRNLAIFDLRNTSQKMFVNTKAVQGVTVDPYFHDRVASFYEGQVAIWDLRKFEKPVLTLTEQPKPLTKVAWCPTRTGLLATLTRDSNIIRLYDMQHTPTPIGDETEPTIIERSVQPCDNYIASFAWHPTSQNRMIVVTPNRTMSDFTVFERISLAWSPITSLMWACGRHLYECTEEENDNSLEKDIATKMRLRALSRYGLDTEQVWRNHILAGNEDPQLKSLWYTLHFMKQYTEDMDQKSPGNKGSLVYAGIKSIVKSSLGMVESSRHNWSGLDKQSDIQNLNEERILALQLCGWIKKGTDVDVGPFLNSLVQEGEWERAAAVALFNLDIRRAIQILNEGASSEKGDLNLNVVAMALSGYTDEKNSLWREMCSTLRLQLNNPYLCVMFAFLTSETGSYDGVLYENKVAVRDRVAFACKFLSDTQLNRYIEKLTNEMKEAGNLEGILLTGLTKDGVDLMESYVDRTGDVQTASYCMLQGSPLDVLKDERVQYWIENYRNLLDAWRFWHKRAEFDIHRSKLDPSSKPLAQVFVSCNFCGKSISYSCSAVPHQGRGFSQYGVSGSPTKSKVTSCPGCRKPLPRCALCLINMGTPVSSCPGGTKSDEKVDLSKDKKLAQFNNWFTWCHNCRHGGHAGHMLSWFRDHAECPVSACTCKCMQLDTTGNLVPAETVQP
UniProt Q9UBC1: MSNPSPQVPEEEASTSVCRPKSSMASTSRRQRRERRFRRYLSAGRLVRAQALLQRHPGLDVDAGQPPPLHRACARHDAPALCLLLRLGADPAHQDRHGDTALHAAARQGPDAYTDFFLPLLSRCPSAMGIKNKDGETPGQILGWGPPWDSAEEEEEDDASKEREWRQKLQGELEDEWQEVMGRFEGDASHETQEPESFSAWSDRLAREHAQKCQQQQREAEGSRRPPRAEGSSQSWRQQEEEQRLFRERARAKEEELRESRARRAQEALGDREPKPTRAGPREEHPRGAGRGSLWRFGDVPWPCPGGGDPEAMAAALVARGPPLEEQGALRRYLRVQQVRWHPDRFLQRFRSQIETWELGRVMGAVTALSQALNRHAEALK
UniProt Q9UEE9, whole entry: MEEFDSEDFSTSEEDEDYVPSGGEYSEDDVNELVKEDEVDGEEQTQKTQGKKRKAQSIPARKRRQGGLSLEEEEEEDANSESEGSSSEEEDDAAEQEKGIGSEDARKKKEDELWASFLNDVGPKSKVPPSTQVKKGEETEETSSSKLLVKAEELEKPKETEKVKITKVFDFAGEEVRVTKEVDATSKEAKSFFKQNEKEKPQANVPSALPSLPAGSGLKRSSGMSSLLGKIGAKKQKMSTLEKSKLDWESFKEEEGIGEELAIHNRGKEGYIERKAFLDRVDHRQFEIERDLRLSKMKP
UniProt Q9P032: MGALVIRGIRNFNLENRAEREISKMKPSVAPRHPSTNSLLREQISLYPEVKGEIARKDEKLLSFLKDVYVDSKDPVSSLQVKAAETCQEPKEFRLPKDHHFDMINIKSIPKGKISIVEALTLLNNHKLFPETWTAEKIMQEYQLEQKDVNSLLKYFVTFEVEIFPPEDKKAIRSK
UniProt Q9NXK8: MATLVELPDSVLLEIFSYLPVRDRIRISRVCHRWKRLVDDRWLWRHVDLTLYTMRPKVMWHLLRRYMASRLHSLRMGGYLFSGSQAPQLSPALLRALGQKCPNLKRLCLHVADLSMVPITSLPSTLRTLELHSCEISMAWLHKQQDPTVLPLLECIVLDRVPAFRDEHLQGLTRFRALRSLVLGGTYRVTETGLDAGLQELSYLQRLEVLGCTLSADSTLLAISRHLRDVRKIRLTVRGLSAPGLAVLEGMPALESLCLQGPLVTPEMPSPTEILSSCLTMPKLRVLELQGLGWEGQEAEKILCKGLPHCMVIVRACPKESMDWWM
UniProt Q9UH92: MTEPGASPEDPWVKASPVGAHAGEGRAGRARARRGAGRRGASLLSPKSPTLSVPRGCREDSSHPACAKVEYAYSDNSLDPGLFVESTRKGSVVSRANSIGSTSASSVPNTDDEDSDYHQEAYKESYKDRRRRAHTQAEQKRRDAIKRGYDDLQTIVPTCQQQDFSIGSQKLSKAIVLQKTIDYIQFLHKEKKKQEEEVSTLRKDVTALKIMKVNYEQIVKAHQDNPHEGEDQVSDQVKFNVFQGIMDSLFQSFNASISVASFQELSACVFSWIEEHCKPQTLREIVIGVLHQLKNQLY
UniProt Q9NX18: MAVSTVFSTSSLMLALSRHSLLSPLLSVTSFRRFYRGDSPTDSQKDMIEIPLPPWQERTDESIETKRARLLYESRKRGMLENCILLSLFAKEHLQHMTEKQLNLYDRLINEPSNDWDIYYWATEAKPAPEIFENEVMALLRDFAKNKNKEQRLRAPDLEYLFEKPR
UniProt Q9UDW3: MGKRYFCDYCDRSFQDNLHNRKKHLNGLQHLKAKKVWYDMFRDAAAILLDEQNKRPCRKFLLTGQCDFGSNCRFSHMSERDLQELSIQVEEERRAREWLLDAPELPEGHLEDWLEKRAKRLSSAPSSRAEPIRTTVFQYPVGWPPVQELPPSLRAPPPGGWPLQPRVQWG
UniProt Q9P260: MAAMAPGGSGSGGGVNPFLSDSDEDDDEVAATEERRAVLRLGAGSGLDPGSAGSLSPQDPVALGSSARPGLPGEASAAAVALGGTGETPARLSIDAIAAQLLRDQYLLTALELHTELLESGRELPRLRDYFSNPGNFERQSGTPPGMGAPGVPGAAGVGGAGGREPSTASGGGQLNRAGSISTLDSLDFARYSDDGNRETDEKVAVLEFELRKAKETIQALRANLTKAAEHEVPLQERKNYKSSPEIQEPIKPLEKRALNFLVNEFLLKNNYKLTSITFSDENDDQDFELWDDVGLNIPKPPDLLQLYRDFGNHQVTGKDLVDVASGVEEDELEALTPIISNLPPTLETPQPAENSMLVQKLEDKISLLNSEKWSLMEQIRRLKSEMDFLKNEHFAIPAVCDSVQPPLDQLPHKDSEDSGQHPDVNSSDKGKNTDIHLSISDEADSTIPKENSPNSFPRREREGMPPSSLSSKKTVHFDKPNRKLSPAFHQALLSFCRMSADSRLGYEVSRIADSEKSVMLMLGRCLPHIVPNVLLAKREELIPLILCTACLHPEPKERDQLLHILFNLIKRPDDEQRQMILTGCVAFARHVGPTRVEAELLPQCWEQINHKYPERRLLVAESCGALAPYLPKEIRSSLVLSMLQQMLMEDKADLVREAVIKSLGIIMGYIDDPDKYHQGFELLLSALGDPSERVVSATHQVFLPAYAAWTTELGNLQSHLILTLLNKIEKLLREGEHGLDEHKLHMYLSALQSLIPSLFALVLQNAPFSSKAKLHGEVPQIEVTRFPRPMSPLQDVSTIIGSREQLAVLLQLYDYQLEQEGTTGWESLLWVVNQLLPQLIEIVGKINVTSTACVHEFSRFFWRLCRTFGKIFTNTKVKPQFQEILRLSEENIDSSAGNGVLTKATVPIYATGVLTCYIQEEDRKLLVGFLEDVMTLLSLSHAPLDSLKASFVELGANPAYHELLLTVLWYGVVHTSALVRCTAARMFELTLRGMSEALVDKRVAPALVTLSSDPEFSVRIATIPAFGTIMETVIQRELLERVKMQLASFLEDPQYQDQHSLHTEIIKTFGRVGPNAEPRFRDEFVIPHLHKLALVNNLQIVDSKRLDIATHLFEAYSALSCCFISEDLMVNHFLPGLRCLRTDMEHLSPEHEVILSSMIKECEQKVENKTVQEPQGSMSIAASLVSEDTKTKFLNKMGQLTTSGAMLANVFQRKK
UniProt Q9NWZ3, whole entry: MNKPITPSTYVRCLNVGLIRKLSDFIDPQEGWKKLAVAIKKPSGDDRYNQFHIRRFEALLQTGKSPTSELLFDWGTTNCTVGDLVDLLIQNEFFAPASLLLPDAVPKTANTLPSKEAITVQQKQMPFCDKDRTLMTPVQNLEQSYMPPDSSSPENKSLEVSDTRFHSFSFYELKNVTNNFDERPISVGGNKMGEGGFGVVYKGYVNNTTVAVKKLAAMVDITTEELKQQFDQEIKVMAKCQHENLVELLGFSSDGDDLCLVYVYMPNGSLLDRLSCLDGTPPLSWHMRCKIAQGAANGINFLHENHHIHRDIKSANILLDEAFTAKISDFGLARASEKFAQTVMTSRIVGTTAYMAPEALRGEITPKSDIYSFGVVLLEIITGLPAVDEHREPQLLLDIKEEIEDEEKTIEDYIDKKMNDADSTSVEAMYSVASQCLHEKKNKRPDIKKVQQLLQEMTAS
UniProt Q9P203: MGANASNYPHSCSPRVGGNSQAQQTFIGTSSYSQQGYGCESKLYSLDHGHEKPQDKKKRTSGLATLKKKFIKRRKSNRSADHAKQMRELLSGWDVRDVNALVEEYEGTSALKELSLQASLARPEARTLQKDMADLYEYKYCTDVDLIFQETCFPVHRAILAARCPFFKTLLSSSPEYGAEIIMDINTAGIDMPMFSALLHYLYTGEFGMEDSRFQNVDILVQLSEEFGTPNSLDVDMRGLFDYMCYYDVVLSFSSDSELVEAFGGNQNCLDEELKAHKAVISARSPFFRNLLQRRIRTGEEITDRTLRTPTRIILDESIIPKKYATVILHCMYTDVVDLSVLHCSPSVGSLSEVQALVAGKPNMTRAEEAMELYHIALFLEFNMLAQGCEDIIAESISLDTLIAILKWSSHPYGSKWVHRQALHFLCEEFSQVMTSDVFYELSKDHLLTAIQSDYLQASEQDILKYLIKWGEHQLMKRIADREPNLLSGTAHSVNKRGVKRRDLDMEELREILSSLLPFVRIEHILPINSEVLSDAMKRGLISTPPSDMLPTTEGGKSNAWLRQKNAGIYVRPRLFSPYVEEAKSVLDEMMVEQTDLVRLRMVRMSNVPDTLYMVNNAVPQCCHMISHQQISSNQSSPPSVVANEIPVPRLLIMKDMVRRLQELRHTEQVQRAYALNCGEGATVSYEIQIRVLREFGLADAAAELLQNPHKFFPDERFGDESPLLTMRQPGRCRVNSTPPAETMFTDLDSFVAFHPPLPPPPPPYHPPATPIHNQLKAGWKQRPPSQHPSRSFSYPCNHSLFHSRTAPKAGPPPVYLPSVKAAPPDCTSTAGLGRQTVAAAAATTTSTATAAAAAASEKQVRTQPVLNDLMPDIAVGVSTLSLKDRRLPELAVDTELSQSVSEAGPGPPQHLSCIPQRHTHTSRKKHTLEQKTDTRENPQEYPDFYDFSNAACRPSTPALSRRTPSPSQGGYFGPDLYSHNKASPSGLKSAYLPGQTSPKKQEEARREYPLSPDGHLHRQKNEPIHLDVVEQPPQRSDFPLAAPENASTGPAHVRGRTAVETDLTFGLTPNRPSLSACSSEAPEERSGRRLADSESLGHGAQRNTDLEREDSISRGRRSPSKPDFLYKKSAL
UniProt Q9NXV2: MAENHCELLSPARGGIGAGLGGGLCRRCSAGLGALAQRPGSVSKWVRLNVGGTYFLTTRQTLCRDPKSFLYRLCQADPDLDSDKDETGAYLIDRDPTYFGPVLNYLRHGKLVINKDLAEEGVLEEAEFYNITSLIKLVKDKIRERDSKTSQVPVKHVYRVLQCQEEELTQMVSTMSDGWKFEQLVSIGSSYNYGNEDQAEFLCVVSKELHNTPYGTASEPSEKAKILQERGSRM

The other results are listed elsewhere or left out. Most entries show no effect beyond the scatter of the controls.

Compound in the test: Cc1nc(Nc2ncc(C(=O)Nc3c(C)cccc3Cl)s2)cc(N2CCN(CCO)CC2)n1 [dasatinib]
Nature of the test: log2 fold change of tryptic peptide abundance, ligand vs vehicle (limited proteolysis) (log2 ratio); higher = more trypsin-susceptible (destabilized). Particulars: ligand concentration: 5 uM; sample: K562 cleared lysate.
For “MAT2B (peptide sequence: EKELSIHFVPGSCR, peptide start residue: 5) (UniProt Q9NZL9)”, the log2 fold change worked out at 0.107.

With “UniProt Q9NXR7 (peptide sequence: ELVQQYHQFQCSR, peptide start residue: 119)”, the log2 fold change is -0.134.

Take “CPSF2 (peptide sequence: NNPFQFR, peptide start residue: 300) (UniProt Q9P2I0)”: the log2 fold change came out at 0.136.

As to “XPR1 (peptide sequence: YNQSISLR, peptide start residue: 663) (UniProt Q9UBH6)”, the log2 fold change was -0.169.

For the target “MIOS (peptide sequence: SLWYTLHFMK, peptide start residue: 425) (UniProt Q9NXC5)”, the log2 fold change was -0.378.

In the case of “GRHPR (peptide sequence: ILDAAGANLK, peptide start residue: 67) (UniProt Q9UBQ7)”, the log2 fold change came out at 0.176.

For “UniProt Q9UBC1 (peptide sequence: HDAPALCLLLR, peptide start residue: 76)”, the log2 fold change is -0.36.

Take “USP36 (peptide sequence: AVSPAPQSSSR, peptide start residue: 740) (UniProt Q9P275)”: the log2 fold change was found to be 0.393.

With “CFDP1 (peptide sequence: KAQSIPAR, peptide start residue: 54) (UniProt Q9UEE9)”, the log2 fold change amounted to 0.21.

Take “EHD2 (peptide sequence: LEGHGLPANLPR, peptide start residue: 517) (UniProt Q9NZN4)”: the log2 fold change is 0.254.

With “UniProt Q9P032 (peptide sequence: MKPSVAPR, peptide start residue: 25)”, the log2 fold change was 0.147.

For the target “CHD7 (peptide sequence: THTITIESEGK, peptide start residue: 1495) (UniProt Q9P2D1)”, the log2 fold change was 0.539.

Turning to “FBXL12 (peptide sequence: VMWHLLR, peptide start residue: 58) (UniProt Q9NXK8)”, the log2 fold change was -0.205.

Take “MLX (peptide sequence: KKQEEEVSTLR, peptide start residue: 192) (UniProt Q9UH92)”: the log2 fold change is -0.395.

With “RABL2A (peptide sequence: FQSMHASYYHK, peptide start residue: 83) (UniProt Q9UBK7)”, the log2 fold change is 0.113.

As to “PRKAG2 (peptide sequence: FDVINLAAEK, peptide start residue: 244) (UniProt Q9UGJ0)”, the log2 fold change is -0.188.

“FOXJ2 (peptide sequence: ESAEGPPPLYNTNHDFK, peptide start residue: 224) (UniProt Q9P0K8)”: the log2 fold change was -0.071.

“PEF1 (peptide sequence: NLFQQYDRDR, peptide start residue: 188) (UniProt Q9UBV8)”: the log2 fold change came to 0.518.

Consider “GGA3 (peptide sequence: ELFDQCENKRR, peptide start residue: 250) (UniProt Q9NZ52)”, for which the log2 fold change is -0.657.

With “SDHAF2 (peptide sequence: APDLEYLFEKPR, peptide start residue: 155) (UniProt Q9NX18)”, the log2 fold change was 0.215.

On to “ZMAT5 (peptide sequence: DLQELSIQVEEERR, peptide start residue: 81) (UniProt Q9UDW3)”, for which the log2 fold change amounted to 0.388.

Take “UniProt Q9P260 (peptide sequence: GMSEALVDKR, peptide start residue: 994)”: the log2 fold change is -1.1.

For “UniProt Q9NYV4 (peptide sequence: DSKPIALKEEIVTPK, peptide start residue: 502)”, the log2 fold change was -0.115.

For “STX18 (peptide sequence: KDYINAYSHTMSEYGR, peptide start residue: 72) (UniProt Q9P2W9)”, the log2 fold change was found to be 0.225.

Consider “IMPACT (peptide sequence: NVMVVVSR, peptide start residue: 259) (UniProt Q9P2X3)”, for which the log2 fold change is -0.33.

With “IRAK4 (peptide sequence: KLAAMVDITTEELK, peptide start residue: 214) (UniProt Q9NWZ3)”, the log2 fold change was -0.351.

In the case of “BICRA (peptide sequence: FHQVPSGIILQNK, peptide start residue: 963) (UniProt Q9NZM4)”, the log2 fold change is -0.538.

Regarding “UniProt Q9UC06 (peptide sequence: FGETFAFENR, peptide start residue: 9)”, the log2 fold change is 0.1.

Consider “UniProt Q9P203 (peptide sequence: SDFPLAAPENASTGPAHVR, peptide start residue: 1037)”, for which the log2 fold change was -0.152.

On to “HMGXB4 (peptide sequence: AITSPLAAGSKPSKK, peptide start residue: 115) (UniProt Q9UGU5)”, for which the log2 fold change was -0.0825.

As for “CCDC88C (peptide sequence: SWPSELGSR, peptide start residue: 1510) (UniProt Q9P219)”, the log2 fold change worked out at 0.317.

For “TFIP11 (peptide sequence: KDFQYEAMQER, peptide start residue: 741) (UniProt Q9UBB9)”, the log2 fold change came to 0.148.

As to “TBC1D7 (peptide sequence: KEQYLDVLHALK, peptide start residue: 82) (UniProt Q9P0N9)”, the log2 fold change was -0.457.

For the target “SAGE1 (peptide sequence: SMSSWLDKQEDAAVTHSICEER, peptide start residue: 64) (UniProt Q9NXZ1)”, the log2 fold change was determined as 0.776.

Take “KCTD5 (peptide sequence: GGIGAGLGGGLCR, peptide start residue: 14) (UniProt Q9NXV2)”: the log2 fold change is -0.492.

With “MRPL27 (peptide sequence: CLYALEEGIVR, peptide start residue: 88) (UniProt Q9P0M9)”, the log2 fold change was 0.285.

Regarding “GSKIP (peptide sequence: YCLELTEAGLK, peptide start residue: 76) (UniProt Q9P0R6)”, the log2 fold change is 0.0528.
